Test results: publication PMC8968644

By UniProt entry, the sequences of proteins in these tests, tags left out. Where a name states a change or a piece, a line headed by the entry shows the natural chain unless it says otherwise.
UniProt Q8N302: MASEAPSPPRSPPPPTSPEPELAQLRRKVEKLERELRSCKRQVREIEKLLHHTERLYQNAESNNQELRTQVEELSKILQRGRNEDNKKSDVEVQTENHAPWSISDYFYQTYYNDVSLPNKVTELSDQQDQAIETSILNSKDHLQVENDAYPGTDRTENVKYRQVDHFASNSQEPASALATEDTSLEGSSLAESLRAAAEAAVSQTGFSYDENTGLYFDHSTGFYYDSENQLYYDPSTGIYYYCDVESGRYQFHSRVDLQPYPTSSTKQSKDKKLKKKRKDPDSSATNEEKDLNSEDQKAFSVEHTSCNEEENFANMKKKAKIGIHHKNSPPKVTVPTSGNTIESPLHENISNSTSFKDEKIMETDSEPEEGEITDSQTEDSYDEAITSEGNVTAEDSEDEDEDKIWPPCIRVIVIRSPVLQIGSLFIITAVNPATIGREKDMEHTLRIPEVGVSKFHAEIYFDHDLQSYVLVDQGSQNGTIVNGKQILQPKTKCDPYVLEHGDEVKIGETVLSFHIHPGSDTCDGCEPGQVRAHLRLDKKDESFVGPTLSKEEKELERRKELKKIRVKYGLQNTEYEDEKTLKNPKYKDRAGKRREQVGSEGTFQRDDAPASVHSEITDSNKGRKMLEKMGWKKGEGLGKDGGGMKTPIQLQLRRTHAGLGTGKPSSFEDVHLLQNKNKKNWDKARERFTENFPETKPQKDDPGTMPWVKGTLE

How the values were obtained:
[1] = biological target: AGGF1-RAD (AGGF1 with the RDD motif mutated into RAD) (UniProt Q8N302); assay: co-IP; HeLa cells cotransfected with the two expression plasmids for 48 h, lysed; lysate preabsorbed with Protein A/G PLUS-agarose; 1.5 μg immunoprecipitation antibody (anti-AGGF1; reciprocal with anti-integrin for the wild type) or anti-mouse IgG overnight at 4 °C; Western blot for the partner
[2] = biological target: AGGF1-RDA (AGGF1 with the RDD motif mutated into RDA) (UniProt Q8N302); assay: as above

B1: Integrin α7 (ITGA7) (receptor, UniProt Q13683 34-1181)
chain: FNLDVMGALRKEGEPGSLFGFSVALHRQLQPRPQSWLLVGAPQALALPGQQANRTGGLFACPLSLEETDCYRVDIDQGADMQKESKENQWLGVSVRSQGPGGKIVTCAHRYEARQRVDQILETRDMIGRCFVLSQDLAIRDELDGGEWKFCEGRPQGHEQFGFCQQGTAAAFSPDSHYLLFGAPGTYNWKGTARVELCAQGSADLAHLDDGPYEAGGEKEQDPRLIPVPANSYFGLLFVTNIDSSDPDQLVYKTLDPADRLPGPAGDLALNSYLGFSIDSGKGLVRAEELSFVAGAPRANHKGAVVILRKDSASRLVPEVMLSGERLTSGFGYSLAVADLNSDGWPDLIVGAPYFFERQEELGGAVYVYLNQGGHWAGISPLRLCGSPDSMFGISLAVLGDLNQDGFPDIAVGAPFDGDGKVFIYHGSSLGVVAKPSQVLEGEAVGIKSFGYSLSGSLDMDGNQYPDLLVGSLADTAVLFRARPILHVSHEVSIAPRSIDLEQPNCAGGHSVCVDLRVCFSYIAVPSSYSPTVALDYVLDADTDRRLRGQVPRVTFLSRNLEEPKHQASGTVWLKHQHDRVCGDAMFQLQENVKDKLRAIVVTLSYSLQTPRLRRQAPGQGLPPVAPILNAHQPSTQRAEIHFLKQGCGEDKICQSNLQLVRARFCTRVSDTEFQPLPMDVDGTTALFALSGQPVIGLELMVTNLPSDPAQPQADGDDAHEAQLLVMLPDSLHYSGVRALDPAEKPLCLSNENASHVECELGNPMKRGAQVTFYLILSTSGISIETTELEVELLLATISEQELHPVSARARVFIELPLSIAGMAIPQQLFFSGVVRGERAMQSERDVGSKVKYEVTVSNQGQSLRTLGSAFLNIMWPHEIANGKWLLYPMQVELEGGQGPGQKGLCSPRPNILHLDVDSRDRRRRELEPPEQQEPGERQEPSMSWWPVSSAEKKKNITLDCARGTANCVVFSCPLYSFDRAAVLHVWGRLWNSTFLEEYSAVKSLEVIVRANITVKSSIKNLMLRDASTVIPVMVYLDPMAVVAEGVPWWVILLAVLAGLLVLALLVLLLWKMGFFKRAKHPEATVPQYHAVKIPREDRQQFKEEKTGTILRNNWGSPRREGPDAHPILAADGHPELGPDGHPGPGTA
**Q.** How did the binding [1] turn out when B1 was run?
**A.** The binding was “binds”.

**Q.** What about the binding [2] of the same binder?
**A.** The binding was “binds”.

No constants are given. Whether binding was seen depends on the method and setting. Binding seen in cells or lysates may run through a third protein. Binding can be weak; no strength is given.
